In PubChem BioAssay AID504327 (National Center for Advancing Translational Sciences (NCATS), 2011):
Where “and” joins values, the source holds several entries; their conditions need not be identical. Equal entries are not always repeated. The whole screen tested about 390,000 compounds, of which about 820 (0.21%) were called active. This list was built around the results that the source calls inconclusive (neither active nor inactive); the mix of calls is not that of the screen. The call rests on the fitted dose curve; in most records, active means well fitted inhibition curve with a large enough effect; inconclusive means small, poorly fitted or top-dose-only effect, or another doubt; inactive means no such curve, though single readings can be large or run the other way. Where the call is inconclusive, the potency comes from a doubtful curve fit.

Amino acid sequences for entries named in this document (tags omitted).
UniProt Q92830, whole entry, looked up: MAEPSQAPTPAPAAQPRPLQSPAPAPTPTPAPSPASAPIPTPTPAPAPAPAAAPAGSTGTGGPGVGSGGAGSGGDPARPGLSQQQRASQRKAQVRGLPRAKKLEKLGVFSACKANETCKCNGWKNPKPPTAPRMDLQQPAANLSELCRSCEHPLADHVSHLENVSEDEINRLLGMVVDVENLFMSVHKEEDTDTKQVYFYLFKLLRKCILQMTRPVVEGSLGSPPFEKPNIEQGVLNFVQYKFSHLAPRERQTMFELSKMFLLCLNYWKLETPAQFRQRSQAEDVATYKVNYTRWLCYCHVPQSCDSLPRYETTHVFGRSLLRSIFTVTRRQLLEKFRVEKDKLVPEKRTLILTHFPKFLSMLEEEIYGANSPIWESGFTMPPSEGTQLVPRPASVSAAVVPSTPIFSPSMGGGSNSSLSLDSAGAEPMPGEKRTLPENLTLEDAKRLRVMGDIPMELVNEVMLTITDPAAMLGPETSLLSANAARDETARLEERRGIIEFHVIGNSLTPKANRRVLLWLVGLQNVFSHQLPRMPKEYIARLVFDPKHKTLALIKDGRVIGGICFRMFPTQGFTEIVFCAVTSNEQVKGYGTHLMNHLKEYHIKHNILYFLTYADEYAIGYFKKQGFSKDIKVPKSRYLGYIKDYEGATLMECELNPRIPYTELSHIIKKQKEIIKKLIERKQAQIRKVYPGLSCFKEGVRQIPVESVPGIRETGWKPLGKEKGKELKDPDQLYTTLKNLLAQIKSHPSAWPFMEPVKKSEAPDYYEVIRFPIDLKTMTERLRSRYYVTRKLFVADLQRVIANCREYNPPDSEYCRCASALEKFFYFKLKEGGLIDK

Target: Histone acetyltransferase KAT2A (Homo sapiens) (UniProt Q92830)
Test: qHTS Assay for Inhibitors of GCN5L2
Details: GCN5L2 HAT assay, ThioGlo1 CoA-SH fluorescence; activity change, negative = inhibition: at 58.9 µM (top of the series) unless noted
Summary of the method: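 GCN5L2 (20 nM) in 50mM HEPES pH 7.5, 0.1mM EDTA, 0.01% Tween-20 preincubated 15 min with compounds at room temperature. Reaction started with H3(1-25) 75uM, acetyl-CoA 70uM, ThioGlo1 50uM; CoA-thiol fluorescence (Ex340/Em540) read at 0 and 20 min.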
On the % scale 0 is the no-effect control and ±100 the full control effect; potency means the concentration at half of the fitted maximal effect.

Row | SMILES | Potency | activity change, negative = inhibition
1 | O=C(NC(=S)Nc1ccc(Cl)cn1)c1cccs1 | inconclusive: 1 µM [inhibitor, full curve, poor fit] | –
2 | CCOC(=O)c1ccc(NC(=O)c2c(NCc3cccs3)sc3c2CCCCC3)cc1 | active: 22.4 µM | –
3 | CC(C)c1nc(SCc2ccccn2)c2c(=O)n(C)c(=O)n(C)c2n1 | inconclusive: 39.8 µM [inhibitor, single point] | –
4 | C[C@@]12C(=O)N(CC3CC3)CC(=O)N1[C@H](C1CC1)[C@@H]1C(=O)N(c3ccccc3)C(=O)[C@@H]12 | inconclusive: 1 µM [inhibitor, full curve, poor fit] | –
5 | CSc1ncc(Cl)c(C(=O)Nc2ccc(S(=O)(=O)N3CCC(C)CC3)cc2)n1 | – | inactive: -8.02%
6 | CCc1ccc(OCCCSc2nc(-c3ccc(C(C)(C)C)cc3)nc3cc(=O)[nH]n23)cc1 | inconclusive: 35.5 µM [inhibitor, single point] | –
7 | Cc1sc(-n2cccc2)c(C(=O)O)c1C | – | inactive: -8.75%
8 | COC(=O)c1ccc(C(=O)OC)c(=O)[nH]1 | inconclusive: 1.58 µM [inhibitor, full curve, poor fit] | –
9 | O=C(CO/N=C/c1ccc(OC(F)F)cc1)NCc1cccs1 | – | inactive: -5.5%
10 | CC(=O)NCCC(=O)Nc1nc(-c2ccc3c(c2)OCCO3)cs1 | inconclusive: 31.6 µM [inhibitor, single point] | –
11 | Cc1ccc(S(=O)(=O)Nc2ccc3c(c2)n(C)c(=O)n3C)cc1 | inconclusive: 3.16 µM [inhibitor, partial curve] | –
12 | CC1(c2nnc(-c3ccc(F)cc3)o2)CC(c2ccc([N+](=O)[O-])cc2)=NO1 (stereo unspecified) | inconclusive: 15.8 µM [inhibitor, partial curve, poor fit] | –
13 | O=C(CC(=O)NN=C1CCCC1)NCCc1ccccc1 | inconclusive: 0.126 µM [inhibitor, full curve, poor fit] | –
14 | Cc1ccc(C)c(NC(=O)Cn2cc(C(=O)C3CCCCC3)c3ccccc32)c1 | – | inactive: 0.0361%
15 | COC(=O)/C(=C(O)\C=C\c1ccccc1[N+](=O)[O-])c1nc2ccccc2[nH]1 | – | inactive: 0.002%
16 | Cc1ccc(C)c(N2CCN(C(=O)CN3CCSc4ccc(S(=O)(=O)N(C)C)cc43)CC2)c1 | inconclusive: 0.891 µM [inhibitor, full curve, poor fit] | –
17 | O=c1cnc2cnc(N3CCNCC3)nc2n1C1CC1 | inconclusive: 17.8 µM [inhibitor, partial curve] | –
18 | CSc1nc(C(=O)N2CCc3c([nH]c4ccccc34)C2c2ccccn2)cs1 (stereo unspecified) | inconclusive: 11.2 µM [inhibitor, partial curve] | –
19 | COC(=O)c1c(-c2ccc(S(C)(=O)=O)cc2)sc2cc(OC)ccc12 | inconclusive: 35.5 µM [inhibitor, single point] | –
20 | O=C(Nc1ccc(Br)cc1)Nc1cnccn1 | inconclusive: 1 µM [inhibitor, full curve, poor fit] | –
21 | CC(NC(=O)Cn1nc(C(=O)O)c2ccccc2c1=O)c1ccccc1 (stereo unspecified) | – | inactive: 3.27%
22 | CC(C)C(=O)NCCc1nc2ccccc2n1CCCOc1ccc(Cl)cc1 | inconclusive: 22.4 µM [inhibitor, partial curve] | –

Row | SMILES | Potency | activity change, negative = inhibition
23 | COc1ccc(S(=O)(=O)N2CCCCC2)cc1NC(=O)C1COc2ccccc2O1 (stereo unspecified) | – | inactive: -8.54%
24 | c1ccc(-c2nnc(-c3ccco3)o2)cc1 | – | inactive: -4.62%
25 | COc1ccc(C(=O)Nc2ccc(S(=O)(=O)Nc3nccc(C)n3)cc2)cc1 | – | inactive: -2.24%
26 | COc1cc(C(=O)NNc2nc3cc4c(cc3s2)OCO4)cc(OC)c1OC | – | inactive: -3.56%
27 | O=C(Nc1cc(S(=O)(=O)Nc2ccccc2F)ccc1Cl)c1ccc(F)cc1F | – | inactive: -4.65%
28 | Cc1ccc(CSC2=CS(=O)(=O)c3ccccc3N2)cc1 | – | inactive: -19.2%
29 | CCCCCCCC/C=C\CCCCCCCC(=O)NCCc1ccc(O)c(O)c1 | inconclusive: 39.8 µM [inhibitor, single point] and inconclusive: 4.47 µM [inhibitor, partial curve, poor fit] | –
30 | CC(=O)c1ccc(OC(=O)C2c3ccccc3Oc3ccccc32)cc1 | inconclusive: 0.891 µM [inhibitor, partial curve, poor fit] | –
31 | Cc1ccc(CSC2=Nc3sccc3C3=NC(=O)CN23)cc1 | inconclusive: 0.398 µM [inhibitor, single point] | –
32 | CCOC(=O)C1CCCN(Cc2cc(=O)oc3cc(C)ccc23)C1 (stereo unspecified) | inconclusive: 7.08 µM [inhibitor, single point] | –
33 | CC1=C(C(=O)OCc2ccc(C)cc2)C(c2ccccc2F)CC(=O)N1 (stereo unspecified) | inconclusive: 17.8 µM [inhibitor, partial curve, poor fit] | –
34 | COc1cc(NC(=O)C2CC(c3c(F)cccc3Cl)=NO2)c(OC)cc1Cl (stereo unspecified) | inconclusive: 7.08 µM [inhibitor, single point] | –
35 | O=S(=O)(N/N=C\c1ccc2c(c1)OCO2)c1ccc(F)cc1 | inconclusive: 0.1 µM [inhibitor, full curve, poor fit] | –
36 | O=C1CC(Cc2ccccc2)C(=O)N1Cc1ccco1 (stereo unspecified) | – | inactive: 0%
37 | O=C(N/N=C/c1ccc(N2CCOCC2)cc1)c1ccccc1OCCOc1ccccc1 | – | inactive: -22.1%
38 | OC(C#CCN1CCCC1)(c1ccccc1)c1cccnc1 (stereo unspecified) | – | inactive: -4.82%
39 | Cc1cccc(C(=O)CC(=O)c2cc(Cl)ccc2O)c1 | – | inactive: 3.34%
40 | CCOC(=O)NNC1CC(=O)N(c2ccc(OC)cc2)C1=O (stereo unspecified) | inconclusive: 8.91 µM [inhibitor, single point] | –
41 | C#CCn1c(=NC(=O)c2cc(-c3cccs3)nc3ccccc23)sc2cc(S(N)(=O)=O)ccc21 | inconclusive: 0.631 µM [inhibitor, single point] | –
42 | O=C(Nc1cccs1)Nc1c(F)c(F)cc(F)c1F | – | inactive: 9.48%
43 | COc1ccc(CCOC(=O)c2ccc(NC(=O)CC#N)cc2)cc1 | inconclusive: 5.01 µM [inhibitor, full curve, poor fit] | –
44 | Cc1ccccc1NC(=S)NCc1ccccc1 | – | inactive: -1.69%

A second format for part of the listing above.
Row	SMILES	Potency	activity change, negative = inhibition
39	Cc1cccc(C(=O)CC(=O)c2cc(Cl)ccc2O)c1	–	inactive: 3.34%
40	CCOC(=O)NNC1CC(=O)N(c2ccc(OC)cc2)C1=O (stereo unspecified)	inconclusive: 8.91 µM [inhibitor, single point]	–
41	C#CCn1c(=NC(=O)c2cc(-c3cccs3)nc3ccccc23)sc2cc(S(N)(=O)=O)ccc21	inconclusive: 0.631 µM [inhibitor, single point]	–

More entries follow:

Row | SMILES | Potency | activity change, negative = inhibition
45 | O=C1OC2(c3ccc(O)cc3Oc3cc(O)ccc32)c2ccccc21 | inconclusive: 31.6 µM [inhibitor, partial curve] and inconclusive: 28.2 µM [inhibitor, partial curve] | –
46 | CCOC(=O)N1CCN(C(=O)/C(=C/c2ccc(F)cc2)NC(=O)c2ccccc2)CC1 | inconclusive: 0.891 µM [inhibitor, full curve, poor fit] | –
47 | CC(C)[C@H](NC(=O)N1CC(=O)Nc2ccccc21)C(=O)N1CCC[C@@H]1C(=O)O | inconclusive: 8.91 µM [inhibitor, single point] | –
48 | COc1ccc2[nH]cc(CCNc3ccnc(-c4ccc5c(c4)OCO5)n3)c2c1 | inconclusive: 35.5 µM [inhibitor, partial curve] | –
49 | CCCOc1ccc(/C=C/C(=O)Nc2sc(C)c(C)c2C(=O)OCC)cc1OC | inconclusive: 39.8 µM [inhibitor, single point] | –
50 | COc1ccc(CNC(=S)NCc2ccc(Cl)cc2)cc1OC | inconclusive: 1.78 µM [inhibitor, partial curve] | –
51 | O=C(NCc1ccccn1)C(=O)NCC1OCCN1S(=O)(=O)c1ccc([N+](=O)[O-])cc1 (stereo unspecified) | inconclusive: 3.55 µM [inhibitor, partial curve] | –
52 | Cc1ccccc1OCC(=O)Nc1ccc(C(=O)Nc2ccccc2C(=O)O)cc1 | inconclusive: 0.891 µM [inhibitor, full curve] | –
53 | Cn1cc([N+](=O)[O-])c(C(=O)N/N=C/c2cc3c(cc2Br)OCO3)n1 | inconclusive: 39.8 µM [inhibitor, single point] | –
54 | O=C(c1c2c(nc3ccccc13)C(=O)N(C1CCCCC1)C2)N1CCN(c2ccc(F)cc2)CC1 | – | inactive: 31.5%
55 | CCN1CCCC1CNC(=O)Cn1cccc1C(=O)c1ccccc1 (stereo unspecified) | inconclusive: 39.8 µM [inhibitor, single point] | –
56 | CCOc1ccc(NS(=O)(=O)c2ccc(C(=O)N(C)CCc3ccc(OC)c(OC)c3)cc2)cc1 | inconclusive: 0.708 µM [inhibitor, full curve, poor fit] | –
57 | Cc1cc(C)c(C#N)c(N2CCCC2)n1 | inconclusive: 0.562 µM [inhibitor, partial curve, poor fit] | –
58 | CN1/C(=C/C(=O)CSc2ccccc2C(=O)O)C(C)(C)c2ccccc21 | – | inactive: -14.7%
59 | CCOC(=O)Cc1c(C)nc2c(-c3ccccc3OC)c(C)nn2c1C | inconclusive: 0.891 µM [inhibitor, partial curve] | –
60 | COc1cc(/C=C2\C(=N)N3N=C(C)SC3=NC2=O)cc(OC)c1OCCOc1ccccc1C | inconclusive: 0.631 µM [inhibitor, full curve, poor fit] | –
61 | C/C(=N\NC(=O)c1ccncc1)c1cccc(NC(=O)c2ccc(C(C)(C)C)cc2)c1 | inconclusive: 17.8 µM [inhibitor, partial curve] | –
62 | CCOC(=O)CSC1=C(C#N)C(=O)NC(c2ccc(OC)c(OC)c2)S1 (stereo unspecified) | inconclusive: 31.6 µM [inhibitor, single point] | –
63 | CC12CCC(=O)N1C(C(=O)Nc1nc(-c3ccccc3Cl)cs1)CS2 (stereo unspecified) | inconclusive: 1.78 µM [inhibitor, full curve, poor fit] | –
64 | Cc1ccc(C2C=C(c3ccccc3)Nc3nc(N4C(=O)CCC4=O)nn32)cc1 (stereo unspecified) | inconclusive: 17.8 µM [inhibitor, partial curve] | –
65 | Cc1ccc(C(=O)N(CC#N)CC#N)cc1C | inconclusive: 39.8 µM [inhibitor, single point] | –
66 | CCOc1ccc(NC(=O)CCN2CCN(S(=O)(=O)c3cc(Cl)ccc3OC)CC2)cc1 | inconclusive: 39.8 µM [inhibitor, single point] | –
